# Values of other authors as cited in patent US7759355B2, “Adenosine A2A receptor antagonists for treating restless legs syndrome or nocturnal myoclonus” (Kyowa Hakko Kirin Co., Ltd., priority 2002, dated 2010).
# At least one compound was matched to its structure with a doubt left.
# Key:
# parkinsonian monkeys = details: Neurology, 52, 1673-1677 (1999); cited from earlier work
# [1] = system: MPTP-induced dopaminergic neurodegeneration; details: J. Neurochem. 80, 262-270 (2002); J. Neurosci. 21, RC143 (2001); cited from earlier work
structure (smiles),measurement,setting,value
CCn1c(=O)c2c(nc(/C=C/c3ccc(OC)c(OC)c3)n2C)n(CC)c1=O [KW-6002],Antiparkinsonian activity,parkinsonian monkeys,exhibits antiparkinsonian activity
same,Neuroprotective effect,[1],neuroprotective effect
